# No constants are given. Whether binding was seen depends on the method and setting. Binding seen in cells or lysates may run through a third protein. Some results given as binding are weak or reduced against the parent protein; the word gives no strength. Sequences can lack the tags named with a protein.
# The chains behind the UniProt entries cited, without tags or fusion partners. Where a name states a change or a piece, a line headed by the entry shows the natural chain unless it says otherwise.
# UniProt P35222: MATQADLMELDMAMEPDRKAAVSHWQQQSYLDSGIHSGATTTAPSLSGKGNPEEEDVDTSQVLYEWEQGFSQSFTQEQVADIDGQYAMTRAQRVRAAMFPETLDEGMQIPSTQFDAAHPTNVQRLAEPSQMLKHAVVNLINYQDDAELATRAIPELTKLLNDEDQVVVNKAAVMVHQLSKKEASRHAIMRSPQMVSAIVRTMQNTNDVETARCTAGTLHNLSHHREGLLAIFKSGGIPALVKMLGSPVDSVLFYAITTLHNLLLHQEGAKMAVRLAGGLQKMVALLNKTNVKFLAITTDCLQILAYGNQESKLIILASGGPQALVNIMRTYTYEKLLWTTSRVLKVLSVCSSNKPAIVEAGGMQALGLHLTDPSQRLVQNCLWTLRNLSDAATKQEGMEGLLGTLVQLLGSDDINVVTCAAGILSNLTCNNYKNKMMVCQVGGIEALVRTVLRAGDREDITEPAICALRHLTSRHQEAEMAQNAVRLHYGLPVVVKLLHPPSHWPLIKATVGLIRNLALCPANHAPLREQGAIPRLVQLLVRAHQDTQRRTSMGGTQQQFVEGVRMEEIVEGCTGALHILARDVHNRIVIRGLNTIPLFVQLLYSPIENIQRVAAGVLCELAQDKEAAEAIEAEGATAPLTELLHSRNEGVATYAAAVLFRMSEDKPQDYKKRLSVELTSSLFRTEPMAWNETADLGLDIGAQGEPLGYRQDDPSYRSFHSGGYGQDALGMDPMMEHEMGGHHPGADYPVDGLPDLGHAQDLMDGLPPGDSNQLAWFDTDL
# B1: His-MAGI3 (protein, UniProt Q5TCQ9 1-1481)
# chain: MSKTLKKKKHWLSKVQECAVSWAGPPGDFGAEIRGGAERGEFPYLGRLREEPGGGTCCVVSGKAPSPGDVLLEVNGTPVSGLTNRDTLAVIRHFREPIRLKTVKPGKVINKDLRHYLSLQFQKGSIDHKLQQVIRDNLYLRTIPCTTRAPRDGEVPGVDYNFISVEQFKALEESGALLESGTYDGNFYGTPKPPAEPSPFQPDPVDQVLFDNEFDAESQRKRTTSVSKMERMDSSLPEEEEDEDKEAINGSGNAENRERHSESSDWMKTVPSYNQTNSSMDFRNYMMRDETLEPLPKNWEMAYTDTGMIYFIDHNTKTTTWLDPRLCKKAKAPEDCEDGELPYGWEKIEDPQYGTYYVDHLNQKTQFENPVEEAKRKKQLGQVEIGSSKPDMEKSHFTRDPSQLKGVLVRASLKKSTMGFGFTIIGGDRPDEFLQVKNVLKDGPAAQDGKIAPGDVIVDINGNCVLGHTHADVVQMFQLVPVNQYVNLTLCRGYPLPDDSEDPVVDIVAATPVINGQSLTKGETCMNPQDFKPGAMVLEQNGKSGHTLTGDGLNGPSDASEQRVSMASSGSSQPELVTIPLIKGPKGFGFAIADSPTGQKVKMILDSQWCQGLQKGDIIKEIYHQNVQNLTHLQVVEVLKQFPVGADVPLLILRGGPPSPTKTAKMKTDKKENAGSLEAINEPIPQPMPFPPSIIRSGSPKLDPSEVYLKSKTLYEDKPPNTKDLDVFLRKQESGFGFRVLGGDGPDQSIYIGAIIPLGAAEKDGRLRAADELMCIDGIPVKGKSHKQVLDLMTTAARNGHVLLTVRRKIFYGEKQPEDDSSQAFISTQNGSPRLNRAEVPARPAPQEPYDVVLQRKENEGFGFVILTSKNKPPPGVIPHKIGRVIEGSPADRCGKLKVGDHISAVNGQSIVELSHDNIVQLIKDAGVTVTLTVIAEEEHHGPPSGTNSARQSPALQHRPMGQSQANHIPGDRSALEGEIGKDVSTSYRHSWSDHKHLAQPDTAVISVVGSRHNQNLGCYPVELERGPRGFGFSLRGGKEYNMGLFILRLAEDGPAIKDGRIHVGDQIVEINGEPTQGITHTRAIELIQAGGNKVLLLLRPGTGLIPDHGDWDINNPSSSNVIYDEQSPLPPSSHFASIFEESHVPVIEESLRVQICEKAEELKDIVPEKKSTLNENQPEIKHQSLLQKNVSKRDPPSSHGHSNKKNLLKVENGVTRRGRSVSPKKPASQHSEEHLDKIPSPLKNNPKRRPRDQSLSPSKGENKSCQVSTRAGSGQDQCRKSRGRSASPKKQQKIEGSKAPSNAEAKLLEGKSRRIAGYTGSNAEQIPDGKEKSDVIRKDAKQNQLEKSRTRSPEKKIKRMVEKSLPSKMTNKTTSKEVSENEKGKKVTTGETSSSNDKIGENVQLSEKRLKQEPEEKVVSNKTEDHKGKELEAADKNKETGRFKPESSSPVKKTLITPGPWKVPSGNKVTGTIGMAEKRQ
# How the values were obtained:
# Assay in all cases: co-IP; COS-7 cells transfected with His-MAGI3 and Flag-β-catenin WT, T779A or L781A; lysates immunoprecipitated with anti-Flag affinity gel, blotted with anti-His
# [1] = molecular target: Flag-β-catenin L781A (UniProt P35222)
# [2] = molecular target: Flag-β-catenin T779A (UniProt P35222)
# [3] = molecular target: Flag-tagged wild-type β-catenin (UniProt P35222)
binder,measurement,setting,value
B1,binding,[1],no binding
same,binding,[2],no binding
same,binding,[3],binds
